Data as given in PubChem BioAssay AID493014 (National Center for Advancing Translational Sciences (NCATS), 2011).
This is one part of the list. Shown are side measurements of this screen, not its main read-out; they come without a call. Most of these compounds were active or inconclusive in the main read-out, so they are no random draw. Words in brackets tell the shape of the fitted curve; partial curves, single points and poor fits give uncertain potencies.

Assay: qHTS Assay to Find Inhibitors of Chronic Active B-Cell Receptor Signaling
Details: ABC-DLBCL IkBa-CBG/CBR reporter, luminescence ratio (green luciferase fused to IkBa over red control in TMD8 lymphoma cells), 4 h
Procedure, shortened: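 TMD8 human ABC-DLBCL cells with doxycycline-inducible IκBα–green luciferase fusion and unfused red luciferase, in 0.5% FBS medium; compounds up to 46 uM, 4 h at 37C. Green/red luminescence ratio, filter-overlap corrected, fitted to concentration-response curves.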

[1] = measured here: CBR red luminescence, cell number
[2] = measured here: IkBa-CBG green luminescence

Cc1ccc(NS(=O)(=O)c2ccc(NC(=O)c3cccs3)cc2)c(C)c1
AC50 [1]: 20.6 µM [falling, single point]

CSc1n[nH]c2nc3c(c(=O)n12)C1(CCCC1)Cc1ccccc1-3
AC50 [1]: 16.4 µM [falling, partial curve]

O=S(=O)(c1cccc(NC(=S)N2CCN(c3ccccc3F)CC2)c1)C(F)F
AC50 [1]: 25.9 µM [falling, single point]

COc1cc(/C=N/Nc2nc3ccccc3[nH]c2=O)ccc1O
AC50 [1]: 8.91 µM [falling, partial curve]

Cc1ccc(NC(=O)Cc2nc(COC(=O)C(C)NS(=O)(=O)c3ccc(C)cc3)cs2)cc1 (configuration not stated)
AC50 [1]: 29.1 µM [rising, single point]

O=C(CNC(=O)c1ccco1)OCc1ccccc1Cl
AC50 [1]: 14.6 µM [rising, partial curve]

COC(=O)COc1ccc(S(=O)(=O)NCc2cccnc2)cc1C
AC50 [1]: 29.1 µM [rising, single point]

COc1ccc2c(c1)c(CC(=O)Nc1ccccc1OC)c(C)n2C(=O)c1ccc(Cl)cc1
AC50 [1]: 9.2 µM [falling, partial curve, poor fit]

O=C(CNC(=O)c1cccs1)OCc1ccc(Br)cc1
AC50 [1]: 6.31 µM [rising, single point]

CCCC(NC(=O)CCc1c(C)c2cc3c4c(oc3c(C)c2oc1=O)CCCC4)C(=O)O (configuration not stated)
AC50 [1]: 0.562 µM [rising, partial curve, poor fit]

CN(C(=O)Nc1ccc(Cl)cc1)n1cnc2ccccc2c1=O
AC50 [1]: 20 µM [rising, partial curve, poor fit]

CCOc1cc(C(=O)Nc2cc(C)ccn2)cc(OCC)c1OCC
AC50 [1]: 10 µM [falling, partial curve]

COc1cccc(S(=O)(=O)NCc2ccc(C(=O)Nc3cccc(Cl)c3)cc2)c1
AC50 [2]: 4.11 µM [rising, partial curve, poor fit]

C/C(=N\Nc1ccc(Cl)c(C(=O)O)c1)c1ccccn1
AC50 [1]: 11.2 µM [falling, partial curve]

Cc1c([N+](=O)[O-])ccc(S(=O)(=O)N2CCC(C(N)=O)CC2)c1C
AC50 [1]: 2.06 µM [rising, partial curve, poor fit]

CCc1ccc2oc(=O)cc(CN3CCCCC3C)c2c1 (configuration not stated)
AC50 [1]: 15.8 µM [rising, single point]
AC50 [2]: 35.5 µM [falling, partial curve, poor fit]

COc1ccc(NC(=S)NCCc2ccccc2)c(OC)c1
AC50 [1]: 23.1 µM [rising, single point]

COc1ccc2c(=O)c3c(=O)n(-c4ccc(C)cc4)c(-c4ccccc4)nc3oc2c1
AC50 [1]: 12.6 µM [falling, partial curve, poor fit]

COc1ccc(CNC(=O)CN(C(=O)CCC(=O)Nc2nccs2)c2ccccc2C)cc1
AC50 [1]: 20 µM [falling, single point]

Cc1ccc(OCCNC(=O)c2cccc(S(=O)(=O)NCc3ccccc3)c2)cc1
AC50 [2]: 18.4 µM [falling, partial curve, poor fit]

COC(=O)C(=C/C(C)=C/c1cccnc1)C(=O)OC
AC50 [1]: 11.2 µM [falling, partial curve, poor fit]

CCc1ncc(/C=C2\C(=O)Nc3ccccc32)[nH]1
AC50 [1]: 35.5 µM [falling, single point]
AC50 [2]: 35.5 µM [rising, partial curve, poor fit]

Cc1ccsc1/C=C(\CC(=O)O)c1nc2ccccc2o1
AC50 [1]: 35.5 µM [rising, partial curve, poor fit]

O=C(N/N=C/c1ccncc1)c1cc([N+](=O)[O-])cc([N+](=O)[O-])c1O
AC50 [1]: 1.26 µM [falling, full curve]

Cc1cc(NC(=O)C2CC(c3ccc(F)cc3)=NO2)n(-c2ccccc2)n1 (configuration not stated)
AC50 [1]: 0.731 µM [falling, full curve, poor fit]

Cc1cc(F)ccc1NC(=O)CCc1c(C)nn(-c2ccc(N3CCCCC3)nn2)c1C
AC50 [1]: 6.31 µM [falling, partial curve, poor fit]

CC1(C)OC(=O)C(=CNc2ccccc2)C(=O)O1
AC50 [1]: 15.8 µM [rising, single point]

O=C(CN1C(=O)C2CCCCC2C1=O)Nc1nc(-c2ccc(F)cc2)cs1 (configuration not stated)
AC50 [1]: 8.2 µM [falling, partial curve]

N/C(=N\OC(=O)c1ccc(Cl)cc1)c1ccc(Cl)cc1
AC50 [1]: 1.64 µM [rising, partial curve, poor fit]

CCn1cc(NC(=O)CCl)c(C)n1
AC50 [1]: 17.8 µM [falling, partial curve, poor fit]
